In publication doi:10.1101/2023.04.17.537183:
These are yes or no findings as the source states them, for the method shown. Binding seen in cells or lysates may run through a third protein. Some results given as binding are weak or reduced against the parent protein; the word gives no strength.

Target: T1, DmMIC60 (Mitofilin/Dmel_CG6455) (D. melanogaster (endogenous in flies)) (UniProt P91928)
T1 sequence: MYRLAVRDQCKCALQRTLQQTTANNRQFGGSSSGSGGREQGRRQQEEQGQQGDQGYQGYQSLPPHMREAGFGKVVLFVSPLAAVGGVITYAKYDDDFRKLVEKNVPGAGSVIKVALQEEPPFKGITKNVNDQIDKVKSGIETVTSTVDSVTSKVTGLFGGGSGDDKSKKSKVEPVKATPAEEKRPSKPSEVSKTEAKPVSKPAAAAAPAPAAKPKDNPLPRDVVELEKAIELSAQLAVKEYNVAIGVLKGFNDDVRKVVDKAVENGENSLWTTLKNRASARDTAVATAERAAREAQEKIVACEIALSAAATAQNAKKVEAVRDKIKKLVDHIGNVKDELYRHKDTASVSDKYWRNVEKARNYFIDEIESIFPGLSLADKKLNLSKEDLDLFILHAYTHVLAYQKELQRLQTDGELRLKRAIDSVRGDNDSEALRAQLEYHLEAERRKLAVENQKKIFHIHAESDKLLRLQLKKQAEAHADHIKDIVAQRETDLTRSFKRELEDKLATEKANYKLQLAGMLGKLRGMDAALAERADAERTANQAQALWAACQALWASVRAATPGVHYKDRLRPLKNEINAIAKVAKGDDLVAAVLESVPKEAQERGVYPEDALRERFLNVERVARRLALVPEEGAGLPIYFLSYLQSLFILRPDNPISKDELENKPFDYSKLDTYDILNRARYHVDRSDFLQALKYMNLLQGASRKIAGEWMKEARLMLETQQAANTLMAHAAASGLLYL
Experiment: co-IP

binding: binds
B1: DmMIC13 (QIL1/Dmel_CG760) (protein, UniProt Q9VVH3 1-122)
chain: MVLGFLVRGGLVAATVYYTQKVGIWGDSDQTDKLYNDIKSELRPHVQKLEKQLPFEVPQLPKTGEMRFLAKHYYNEGVKNTFRFIHMLPCYAGRGLKKVKDTFQDFAQSPAIAGGAESSPPK
